# Test results from patent US10435394B2, “Plant growth-promotion agent and method for promoting plant growth” (RIKEN, priority 2014, dated 2019).
# Some entries share one result that the patent states for a list of compounds.
# System: Arabidopsis seeds (Columbia)
# Test: Plant growth promoting activity test using Arabidopsis, Experimental Method (2)
# Format: in vivo
# Details: 15, 30, 60 μM; for development/growth of lateral roots: constant light irradiation; for plant growth promoting effects (state of sprouting): Day 22, FIGS. 6 and 7
# Description: A ½ MS medium (agarose: 0.9%; sucrose: 1.5%; Murashige & Skoog plant culture medium×½ concentration) was prepared and autoclaved. Then, the test compounds were separately added thereto at 0 (DMSO alone), 15, 30, and 60 μM and solidified in a plastic petri dish. Arabidopsis seeds (Columbia) were sterilized with ethanol and sown to sprout, followed by observation of conditions of leaves and roots after sprouting. DMSO alone was added as a solvent for a control.
# [1] = Day 13 of sprouting, FIGS. 8 and 9
# [2] = Day 11 of sprouting, FIGS. 12 and 13
Structure (SMILES),development/growth of lateral roots [1],plant growth promoting effects (state of sprouting),development/growth of lateral roots [2]
COc1ccc(CN2CCOCC2)cc1OC [Compound 10],activity of promoting development/growth of lateral roots in the early growth stage,remarkably excellent plant growth promoting effects,–
c1cc2c(cc1CN1CCSCC1)OCO2 [Compound 12],activity of promoting development/growth of lateral roots in the early growth stage,remarkably excellent plant growth promoting effects,–
c1cc2c(cc1CCN1CCOCC1)OCO2 [Compound 16],–,–,activity of promoting development/growth of lateral roots at the early growth stage
CC(c1ccc2c(c1)OCO2)N1CCOCC1 (stereo not drawn) [Compound 17],–,–,activity of promoting development/growth of lateral roots at the early growth stage
c1cc2c(cc1CN1CCOCC1)OCCO2 [Compound 18],–,–,activity of promoting development/growth of lateral roots at the early growth stage
c1ccc(CN2CCOCC2)cc1 [Compound 19],–,–,activity of promoting development/growth of lateral roots at the early growth stage
Clc1ccc(CN2CCOCC2)cc1Cl [Compound 20],–,–,activity of promoting development/growth of lateral roots at the early growth stage
